PubChem BioAssay AID1508597 – Cure First | 2020
This is an unselected part of about 2,100 reagents tested. 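Calls flag viability under 80% in either arm, not effects specific to rucaparib; the reference for percent is not stated.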 Unmarked entries are inactive. Not given: the 100% reference.

Screen: 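Knock-downs altering ovarian cancer cell survival with or without PARP inhibitor rucaparib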 (primary screen)
Cell system: human ovarian carcinoma lines grown from tumours: OCI-P5x (papillary serous) and OCI-C5x (clear cell)
Knock-down reagent: siRNA pool against human genes, 1.25 pmol siRNA per well
Duration: 72 h or 96 h, depending on the cell culture
Challenge: rucaparib 20 µM (about IC30) or vehicle, present until read-out
Detection: 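ATP luminescence measured at 72 or 96 h according to the culture, then normalised and expressed as percent viability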
Scale: viability, normalised: higher = more viable cells remaining
Active means: 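a well counts as a hit if its normalised viability is under 80 percent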
Meaning of the calls: active = viability under 80%; inactive = viability 80% or more

gene | rucaparib or vehicle | cell line | technical replicate | viability, normalised (%)
MED24 | Rucaparib | OCI-C5x (clear cell) | 1 | 61 (active)
MED24 | Rucaparib | OCI-C5x (clear cell) | 2 | 44.6 (active)
MED24 | Rucaparib | OCI-C5x (clear cell) | 3 | 49.9 (active)
MED24 | Rucaparib | OCI-P5x (serous) | 1 | 57.4 (active)
MED24 | Rucaparib | OCI-P5x (serous) | 2 | 59.5 (active)
MED24 | Rucaparib | OCI-P5x (serous) | 3 | 58 (active)
MED24 | Vehicle | OCI-C5x (clear cell) | 1 | 42.6 (active)
MED24 | Vehicle | OCI-C5x (clear cell) | 2 | 57.2 (active)
MED24 | Vehicle | OCI-C5x (clear cell) | 3 | 51.5 (active)
MED24 | Vehicle | OCI-P5x (serous) | 1 | 61 (active)
MED24 | Vehicle | OCI-P5x (serous) | 2 | 61 (active)
MED24 | Vehicle | OCI-P5x (serous) | 3 | 58.2 (active)
TADA3 | Rucaparib | OCI-C5x (clear cell) | 1 | 78.3 (active)
TADA3 | Rucaparib | OCI-C5x (clear cell) | 2 | 69.4 (active)
TADA3 | Rucaparib | OCI-C5x (clear cell) | 3 | 59.2 (active)
TADA3 | Rucaparib | OCI-P5x (serous) | 1 | 61.1 (active)
TADA3 | Rucaparib | OCI-P5x (serous) | 2 | 54.6 (active)
TADA3 | Rucaparib | OCI-P5x (serous) | 3 | 54.9 (active)
TADA3 | Vehicle | OCI-C5x (clear cell) | 1 | 64.9 (active)
TADA3 | Vehicle | OCI-C5x (clear cell) | 2 | 64.5 (active)
TADA3 | Vehicle | OCI-C5x (clear cell) | 3 | 77.5 (active)
TADA3 | Vehicle | OCI-P5x (serous) | 1 | 69 (active)
TADA3 | Vehicle | OCI-P5x (serous) | 2 | 75.4 (active)
TADA3 | Vehicle | OCI-P5x (serous) | 3 | 72.2 (active)

Reformatted: results already given.
TADA3, rucaparib or vehicle Vehicle, cell line OCI-P5x (serous), technical replicate 2
- viability, normalised (%): 75.4 (active)

TADA3, rucaparib or vehicle Vehicle, cell line OCI-P5x (serous), technical replicate 3
- viability, normalised (%): 72.2 (active)
